In patent US11207423B2 (Northwestern University, priority 2016, dated 2021) one finds isolated yield data, which are given here for 1 substance.

The series can be described thus: general procedure: Fmoc solid-phase peptide synthesis; Rink Amide MBHA resin; HATU/DIPEA. The settings on record: whole synthesis, TFA salts.

Consider “3-pyrrol-O-adipic-N-Sar-Tyr-Asn-Leu-Tyr-Arg-Val-Arg-Ser-amide”, for which the isolated yield was 26%.
